Assay results: PMC10391610, “Survivin prevents the polycomb repressor complex 2 from methylating histone 3 lysine 27” (iScience, 2023)
These are yes or no findings as the source states them, for the method shown. Some results given as binding are weak or reduced against the parent protein; the word gives no strength.

Protein sequences, listed by entry. Tags and fused reporters are not part of them.
UniProt O15392: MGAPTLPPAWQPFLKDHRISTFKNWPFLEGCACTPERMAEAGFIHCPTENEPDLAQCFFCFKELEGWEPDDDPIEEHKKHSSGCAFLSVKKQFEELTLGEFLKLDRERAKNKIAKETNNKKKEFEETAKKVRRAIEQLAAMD

Key:
EED peptide … (human) [1] = target: T1, EED peptide … (human (by the printed UniProt entry)); test: peptide or protein array; PEPperCHIP microarray of 15-residue peptides (10 residues overlap) on the chip; survivin 1 µg/ml in incubation buffer; detected with 6x His Tag Antibody DyLight680; both purified
T1 sequence (peptide): PGRKSWGKGKWKSKK

EZH2 peptide … (human) [2] = target: T2, EZH2 peptide … (human (by the printed UniProt entry)); test: as above
T2 sequence (peptide): PVCWRKRVKSEYMRL

EED peptide … (human) [3] = target: T3, EED peptide … (human (by the printed UniProt entry)); test: as above; remark: listed apart in the source
T3 sequence (peptide): IFGGVEGHRDEVLSA

EZH2 peptide … (human) [4] = target: T4, EZH2 peptide … (human (by the printed UniProt entry)); test: as above; remark: listed apart in the source
T4 sequence (peptide): VEDETVLHNIPYMGD

EZH2 peptide … (human) [5] = target: T5, EZH2 peptide … (human (by the printed UniProt entry)); test: as above; remark: listed apart in the source
T5 sequence (peptide): KRVKSEYMRLRQLKR

EED peptide … (human) [6] = target: T6, EED peptide … (human (by the printed UniProt entry)); test: as above; remark: listed apart in the source
T6 sequence (peptide): DTLVAIFGGVEGHRD

EED peptide … (human) [7] = target: T7, EED peptide … (human (by the printed UniProt entry)); test: as above; remark: listed apart in the source
T7 sequence (peptide): LILSKSCENAIVCWK

EED peptide … (human) [8] = target: T8, EED peptide … (human (by the printed UniProt entry)); test: as above; remark: listed apart in the source
T8 sequence (peptide): YSQCDIWYMRFSMDF

JARID2 peptide … (human) [9] = target: T9, JARID2 peptide … (human (by the printed UniProt entry)); test: as above
T9 sequence (peptide): AQDRLAKLQEAYCQY

EED peptide … (human) [10] = target: T10, EED peptide … (human (by the printed UniProt entry)); test: as above; remark: listed apart in the source
T10 sequence (peptide): NTPNAPGRKSWGKGK

EZH2 peptide … (human) [11] = target: T11, EZH2 peptide … (human (by the printed UniProt entry)); test: as above; remark: listed apart in the source
T11 sequence (peptide): AKRAIQTGEELFFDY

SUZ12 peptide … (human) [12] = target: T12, SUZ12 peptide … (human (by the printed UniProt entry)); test: as above
T12 sequence (peptide): EARDDLHCPWCTLNC

EED peptide … (human) [13] = target: T13, EED peptide … (human (by the printed UniProt entry)); test: as above; remark: listed apart in the source
T13 sequence (peptide): YVDADADENFYTCAW

EZH2 peptide … (human) [14] = target: T14, EZH2 peptide … (human (by the printed UniProt entry)); test: as above; remark: listed apart in the source
T14 sequence (peptide): VQKNEFISEYCGEII

SUZ12 peptide … (human) [15] = target: T15, SUZ12 peptide … (human (by the printed UniProt entry)); test: as above; remark: listed apart in the source
T15 sequence (peptide): CTLNCRKLYSLLKHL

JARID2 peptide … (human) [16] = target: T16, JARID2 peptide … (human (by the printed UniProt entry)); test: as above; remark: listed apart in the source
T16 sequence (peptide): ITMDELPLIGGCELD

EZH2 peptide … (human) [17] = target: T17, EZH2 peptide … (human (by the printed UniProt entry)); test: as above; remark: listed apart in the source
T17 sequence (peptide): LFFDYRYSQADALKY

EED peptide … (human) [18] = target: T18, EED peptide … (human (by the printed UniProt entry)); test: as above; remark: listed apart in the source
T18 sequence (peptide): WKSKKCKYSFKCVNS

JARID2 peptide … (human) [19] = target: T19, JARID2 peptide … (human (by the printed UniProt entry)); test: as above; remark: listed apart in the source
T19 sequence (peptide): GCELDLACFFRLINE

EED peptide … (human) [20] = target: T20, EED peptide … (human (by the printed UniProt entry)); test: as above; remark: listed apart in the source
T20 sequence (peptide): EGHRDEVLSADYDLL

JARID2 peptide … (human) [21] = target: T21, JARID2 peptide … (human (by the printed UniProt entry)); test: as above; remark: listed apart in the source
T21 sequence (peptide): LPLIGGCELDLACFF

EZH2 peptide … (human) [22] = target: T22, EZH2 peptide … (human (by the printed UniProt entry)); test: as above; remark: listed apart in the source
T22 sequence (peptide): DALKYVGIEREMEIP

EZH2 peptide … (human) [23] = target: T23, EZH2 peptide … (human (by the printed UniProt entry)); test: as above; remark: listed apart in the source
T23 sequence (peptide): PDLCLTCGAADHWDS

EED peptide … (human) [24] = target: T24, EED peptide … (human (by the printed UniProt entry)); test: as above; remark: listed apart in the source
T24 sequence (peptide): ADENFYTCAWTYDSN

EED peptide … (human) [25] = target: T25, EED peptide … (human (by the printed UniProt entry)); test: as above; remark: listed apart in the source
T25 sequence (peptide): DFSTRDIHRNYVDCV

EED peptide … (human) [26] = target: T26, EED peptide … (human (by the printed UniProt entry)); test: as above; remark: listed apart in the source
T26 sequence (peptide): WGKGKWKSKKCKYSF

SUZ12 peptide … (human) [27] = target: T27, SUZ12 peptide … (human (by the printed UniProt entry)); test: as above; remark: listed apart in the source
T27 sequence (peptide): TQIEEFSDVNEGEKE

EZH2 peptide … (human) [28] = target: T28, EZH2 peptide … (human (by the printed UniProt entry)); test: as above; remark: listed apart in the source
T28 sequence (peptide): RYSQADALKYVGIER

JARID2 peptide … (human) [29] = target: T29, JARID2 peptide … (human (by the printed UniProt entry)); test: as above; remark: listed apart in the source
T29 sequence (peptide): LLSYDSLSPEEHRRL

EZH2 peptide … (human) [30] = target: T30, EZH2 peptide … (human (by the printed UniProt entry)); test: as above; remark: listed apart in the source
T30 sequence (peptide): KSEKGPVCWRKRVKS

JARID2 peptide … (human) [31] = target: T31, JARID2 peptide … (human (by the printed UniProt entry)); test: as above; remark: listed apart in the source
T31 sequence (peptide): RWGPNVQRLACIKKH

EZH2 peptide … (human) [32] = target: T32, EZH2 peptide … (human (by the printed UniProt entry)); test: as above; remark: listed apart in the source
T32 sequence (peptide): VLHNIPYMGDEVLDQ

EZH2 peptide … (human) [33] = target: T33, EZH2 peptide … (human (by the printed UniProt entry)); test: as above; remark: listed apart in the source
T33 sequence (peptide): QTGEELFFDYRYSQA

EED peptide … (human) [34] = target: T34, EED peptide … (human (by the printed UniProt entry)); test: as above; remark: listed apart in the source
T34 sequence (peptide): LGRFDYSQCDIWYMR

JARID2 peptide … (human) [35] = target: T35, JARID2 peptide … (human (by the printed UniProt entry)); test: as above; remark: listed apart in the source
T35 sequence (peptide): AYCQYLLSYDSLSPE

JARID2 peptide … (human) [36] = target: T36, JARID2 peptide … (human (by the printed UniProt entry)); test: as above; remark: listed apart in the source
T36 sequence (peptide): AKLQEAYCQYLLSYD

SUZ12 peptide … (human) [37] = target: T37, SUZ12 peptide … (human (by the printed UniProt entry)); test: as above; remark: listed apart in the source
T37 sequence (peptide): FSDVNEGEKEVMKLW

SUZ12 peptide … (human) [38] = target: T38, SUZ12 peptide … (human (by the printed UniProt entry)); test: as above; remark: listed apart in the source
T38 sequence (peptide): LLKHLKLCHSRFIFN

EZH2 peptide … (human) [39] = target: T39, EZH2 peptide … (human (by the printed UniProt entry)); test: as above; remark: listed apart in the source
T39 sequence (peptide): DRRGKVYDKYMCSFL

EED peptide … (human) [40] = target: T40, EED peptide … (human (by the printed UniProt entry)); test: as above; remark: listed apart in the source
T40 sequence (peptide): DIHRNYVDCVRWLGD

EZH2 peptide … (human) [41] = target: T41, EZH2 peptide … (human (by the printed UniProt entry)); test: as above; remark: listed apart in the source
T41 sequence (peptide): SQDEADRRGKVYDKY

EZH2 peptide … (human) [42] = target: T42, EZH2 peptide … (human (by the printed UniProt entry)); test: as above; remark: listed apart in the source
T42 sequence (peptide): TCGAADHWDSKNVSC

JARID2 peptide … (human) [43] = target: T43, JARID2 peptide … (human (by the printed UniProt entry)); test: as above; remark: listed apart in the source
T43 sequence (peptide): LKSQGITMDELPLIG

JARID2 peptide … (human) [44] = target: T44, JARID2 peptide … (human (by the printed UniProt entry)); test: as above; remark: listed apart in the source
T44 sequence (peptide): VQRLACIKKHLKSQG

EZH2 peptide … (human) [45] = target: T45, EZH2 peptide … (human (by the printed UniProt entry)); test: as above; remark: listed apart in the source
T45 sequence (peptide): FISEYCGEIISQDEA

[46] = target: EZH2_(172-211) peptide (human); test: BLI; EZH2 peptide (50 μM) immobilised on AR2G biosensors, quenched with ethanolamine; survivin as analyte at 100, 33.3, 11.1 and 3.7 nM; survivin SEC buffer (50 mM Tris pH 7.5, 150 mM NaCl, 1 mM DTT); 30°C; Bayesian 1:1 model, apparent dissociation constant; both purified

Measured: binding

survivin (from UniProt O15392 1-142)
not listed: [46]
binds: all other assays above

survivin (His-tagged, from pHIS8) (from UniProt O15392 1-142)
binds: [46]
